Results deposited as PubChem BioAssay AID1159584 (Peter MacCallum Cancer Centre, 2016)
Screen: 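Genes that CDH1-null MCF10A cells selectively depend on to survive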 (primary screen). Cells: human MCF10A breast epithelial cells, parental and CDH1-null. Reagents: siRNA against human genes. Read-out: 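ATP luminescence (CellTiter-Glo) viability per line relative to mean mock wells over all plates, and the ratio of CDH1-null to parental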. Scale: CDH1-null / parental viability ratio: higher = CDH1-null cells survive relatively better than parental; CDH1-null viability vs mock: higher = more viable CDH1-null cells; parental viability vs mock: higher = more viable parental cells.
The whole screen tested about 18,000 reagents; below is a random part of them. Not given: the amount of reagent, the time to read-out.

Gene | CDH1-null / parental viability ratio | CDH1-null viability vs mock (fraction of mock) | parental viability vs mock (fraction of mock)
ERI1 | 0.95 | 0.82 | 0.86
DSEL | 1.05 | 0.64 | 0.61
PARP8 | 1.01 | 0.81 | 0.8
BPTF | 1.32 | 0.5 | 0.38
ARL16 | 1.06 | 0.9 | 0.85
KLRF1 | 0.79 | 0.65 | 0.82
ELF4 | 1.32 | 0.9 | 0.68
PPIB | 0.88 | 0.79 | 0.9
NUMA1 | 1.18 | 0.4 | 0.34
CRLF3 | 1.13 | 1.08 | 0.96
KRT80 | 1.19 | 0.76 | 0.64
PADI1 | 0.98 | 0.84 | 0.86
OR10G9 | 0.9 | 0.61 | 0.68
CPXM2 | 1 | 0.84 | 0.84
ZKSCAN8 | 0.98 | 0.52 | 0.53
CC2D1A | 0.96 | 0.68 | 0.71
HMBOX1 | 0.87 | 0.7 | 0.8
OAZ3 | 0.83 | 0.77 | 0.93
EIF6 | 0.9 | 0.74 | 0.82
BUD13 | 0.87 | 0.58 | 0.67
GABBR1 | 1.28 | 0.92 | 0.72
AFP | 0.77 | 0.58 | 0.75
MYADM | 0.88 | 0.5 | 0.57
CCL3L3 | 0.82 | 0.56 | 0.68

Single entries from the entries so far:
Under “CDH1-null / parental viability ratio”, CPXM2 has 1
KRT80, CDH1-null / parental viability ratio: 1.19
HMBOX1, parental viability vs mock (fraction of mock) → 0.8
PADI1, CDH1-null / parental viability ratio = 0.98
EIF6, CDH1-null viability vs mock (fraction of mock) → 0.74
For “CDH1-null viability vs mock (fraction of mock)”, BUD13 has 0.58

The listing continues:
Gene | CDH1-null / parental viability ratio | CDH1-null viability vs mock (fraction of mock) | parental viability vs mock (fraction of mock)
TEX28 | 1.35 | 0.73 | 0.54
GUK1 | 0.66 | 0.58 | 0.88
GIMAP5 | 0.94 | 0.58 | 0.62
LACTB2 | 1.51 | 1.27 | 0.84
REN | 1.29 | 0.85 | 0.66
MRPL35 | 1.18 | 1.06 | 0.9
THEMIS | 1.06 | 0.87 | 0.82
ADAP1 | 1.17 | 0.82 | 0.7
SLC75A1 | 1.15 | 0.78 | 0.68
PCDHGB4 | 1.05 | 0.84 | 0.8
OR4C15 | 1.08 | 0.9 | 0.83
STPG2 | 0.97 | 1.14 | 1.17
CELF3 | 1.13 | 0.54 | 0.48
ZNF112 | 0.86 | 0.38 | 0.44
PTPRT | 1.26 | 0.88 | 0.7
CLP1 | 0.87 | 0.71 | 0.82
CSE1L | 0.58 | 0.36 | 0.62
TMEM198 | 1.02 | 0.67 | 0.66
ZNF280B | 0.96 | 0.86 | 0.9
CTNND2 | 1.12 | 0.87 | 0.78
NOSTRIN | 1.14 | 0.82 | 0.72
USP42 | 1.07 | 1.07 | 1
PHYHIPL | 1.09 | 0.72 | 0.66
CIART | 0.92 | 0.44 | 0.48
TEKT3 | 0.62 | 0.4 | 0.64
YPEL5 | 0.69 | 0.47 | 0.68
LYPD6B | 0.76 | 0.6 | 0.79
IL12B | 1.16 | 1.02 | 0.88
HSPA12A | 1.06 | 0.94 | 0.89
SLC16A13 | 0.86 | 0.54 | 0.63
CPZ | 1.15 | 0.55 | 0.48
CCNH | 0.96 | 1.12 | 1.17
ARMC5 | 1.19 | 0.96 | 0.81
UBASH3A | 1.03 | 0.99 | 0.96
TAF4 | 1.03 | 0.39 | 0.38
BEND5 | 1.14 | 0.84 | 0.74
OR10J1 | 1.26 | 1.08 | 0.86
SLC66A3 | 0.92 | 0.66 | 0.72
COL20A1 | 0.76 | 0.26 | 0.34
OR4X2 | 1.03 | 0.92 | 0.89
OR2M5 | 0.75 | 0.6 | 0.8
PRIMA1 | 1.02 | 0.86 | 0.84
BDKRB1 | 1.23 | 0.96 | 0.78
HEY2 | 0.91 | 0.69 | 0.76
